What was measured:
[1] = 64Cu labelling (radio-HPLC)
[2] = 177Lu labelling (radio-HPLC); conditions: for radiochemical yield (highest, as stated in text): Lu-177, pH 5.0, 95 °C, 20–40 min
[3] = Cu-64, pH 6.05, 0 min (upon mixing at room temperature)
[4] = Cu-64, pH 6.05, 40 °C, 20 min (text: 30 min)

O=C(O)CN1CCN(CC(=O)O)CCN(CC(=O)O)CCN(CC(=O)O)CC1 [DOTA, 1,4,7,10-tetraazacyclododecane-1,4,7,10-tetraacetic acid]
radiochemical yield (overall yield) [1, 3]: 88.99% | radiochemical yield (overall yield) [1, 4]: 95.06% | radiochemical yield (overall yield) ([2]; Lu-177, pH 5.01, 95 °C, 5 min): 22.25% | radiochemical yield (overall yield) ([2]; Lu-177, pH 5.01, 95 °C, 10 min): 27.86% | radiochemical yield (overall yield) ([2]; Lu-177, pH 5.01, 95 °C, 20 min): 33.93% | radiochemical yield (overall yield) ([2]; Lu-177, pH 5.01, 95 °C, 30 min): 36.14% | radiochemical yield (overall yield) ([2]; Lu-177, pH 5.01, 95 °C, 40 min): 38.17%

CC[C@H]1CN(CC(=O)O)[C@@H](CC)CN(CC(=O)O)[C@@H](CC)CN(CC(=O)O)[C@@H](CC)CN1CC(=O)O [L2]
radiochemical yield (overall yield) [1, 3]: 100% | radiochemical yield (overall yield) [1, 4]: 100% | radiochemical yield (overall yield) ([2]; Lu-177, pH 5.01, 85 °C, 10 min): 75.40% | radiochemical yield (overall yield) ([2]; Lu-177, pH 5.01, 85 °C, 20 min): 82.68% | radiochemical yield (overall yield) ([2]; Lu-177, pH 5.01, 85 °C, 40 min): 86.23% | radiochemical yield (overall yield) ([2]; Lu-177, pH 5.01, 95 °C, 5 min): 71.10% | radiochemical yield (overall yield) ([2]; Lu-177, pH 5.01, 95 °C, 10 min): 85.50% | radiochemical yield (overall yield) ([2]; Lu-177, pH 5.01, 95 °C, 20 min): 91.92% | radiochemical yield (overall yield) ([2]; Lu-177, pH 5.01, 95 °C, 30 min): 94.33% | radiochemical yield (overall yield) ([2]; Lu-177, pH 5.01, 95 °C, 40 min): 95.47% | radiochemical yield (overall yield) ([2]; Lu-177, pH 7.00, 95 °C, 20 min): 97.24%

O=C([O-])CN1CCN(CC(=O)[O-])CCN(CC(=O)[O-])CCN(CC(=O)[O-])CC1.[177Lu+3].[H+] [[^177LuDOTA]^−, reference compound]
radiochemical yield (highest, as stated in text) [2]: 38%

CC[C@H]1CN(CC(=O)[O-])[C@@H](CC)CN(CC(=O)[O-])[C@@H](CC)CN(CC(=O)[O-])[C@@H](CC)CN1CC(=O)[O-].[177Lu+3] [[^177LuL2]^−]
temperature required to obtain the 177Lu complex ([2]; Lu-177): at least 80 °C | radiochemical yield (highest, as stated in text) [2]: over 95% | radiochemical yield (overall yield) ([2]; Lu-177, pH 7.00, 95 °C, 20 min): 97%

O=C([O-])CN1CCN(CC(=O)O)CCN(CC(=O)[O-])CCN(CC(=O)O)CC1.[64Cu+2] [^64CuDOTA, reference compound]
radiochemical yield (overall yield) [1, 3]: 89% | radiochemical yield (overall yield) [1, 4]: 95%

CC[C@H]1CN(CC(=O)O)[C@@H](CC)CN(CC(=O)[O-])[C@@H](CC)CN(CC(=O)O)[C@@H](CC)CN1CC(=O)[O-].[64Cu+2] [^64CuL2]
radiochemical yield (overall yield) [1, 3]: near quantitative | radiochemical yield (overall yield) [1, 4]: 100%

— paper PMC5829242, “Chiral DOTA chelators as an improved platform for biomedical imaging and therapy applications” (Nature Communications, 2018)
